Source: patent publication US9023847B2, “Azaheterocyclic compounds” (Merck Patent GmbH, priority 2009, dated 2015)

The chains behind the UniProt entries cited, without tags or fusion partners.
UniProt P23443, whole entry T412E: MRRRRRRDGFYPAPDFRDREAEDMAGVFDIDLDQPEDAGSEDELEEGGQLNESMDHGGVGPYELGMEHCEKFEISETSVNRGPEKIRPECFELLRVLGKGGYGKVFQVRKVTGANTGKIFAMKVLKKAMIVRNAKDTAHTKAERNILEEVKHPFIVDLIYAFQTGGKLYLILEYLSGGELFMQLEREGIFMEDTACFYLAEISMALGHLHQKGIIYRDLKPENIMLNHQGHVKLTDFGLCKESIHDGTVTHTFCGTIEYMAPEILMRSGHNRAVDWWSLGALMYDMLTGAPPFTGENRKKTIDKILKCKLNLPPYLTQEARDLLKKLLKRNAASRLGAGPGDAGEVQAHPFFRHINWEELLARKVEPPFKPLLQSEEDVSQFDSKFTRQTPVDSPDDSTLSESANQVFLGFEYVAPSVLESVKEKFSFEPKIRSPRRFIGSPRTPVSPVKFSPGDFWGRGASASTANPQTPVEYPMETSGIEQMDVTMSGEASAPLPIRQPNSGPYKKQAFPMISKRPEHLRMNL

Biological target: P70S6K (T412E mutant, Millipore) (Homo sapiens, UniProt P23443, T412E)
Test: p70S6K enzyme assay
Details: read-out: IC50 (p70S6K); class symbol; 3 nM P70S6K, 24 μM ATP
Procedure: P70S6K inhibitor compounds are diluted and plated in 96 well plates. A reaction mixture including the following components is then added to the compound plate to initiate the enzyme reaction; P70S6K (3 nM, T412E mutant, Millipore) is mixed with 24 μM ATP in an assay buffer containing 100 mM Hepes (pH 7.5), 5 mM MgCl2, 1 mM DTT, 0.015% Brij and 1 μM of the substrate peptide FITC-AHA-AKRRRLSSLRA-OH (derived from the S6 ribosomal protein sequence, FITC=fluorescein isothiocyanate, AHA=6-aminohexanoic acid). The reaction is incubated for 90 min at 25° C., before the addition of 10 mM EDTA to stop the reaction. The proportion of substrate and product (phosphorylated) peptide is analysed on a Caliper Life Sciences Lab Chip 3000, using a pressure of −1.4 psi, and upstream and downstream voltages of −3000 and −700 respectively. Product peaks are resolved before substrate peaks on the resulting chromatograms.

IC50: < 100 nM
SMILES: O=C(NCCNCc1ccc[nH]1)c1sccc1Nc1ccnc2[nH]ccc12

The structures given here were assigned with low confidence; some may be wrong.
